Source: patent US4590161A, “Microbiologically produced L-phenylalanine-dehydrogenase, process for its recovery and use” (priority 1983, dated 1986)
At least one structure is not confirmed: it was looked up by name or label, or the drawing left a doubt.

System: L-phenylalanine-dehydrogenase
Assay: Batch reductive amination of α-ketocarboxylic acids with NADH regeneration by formate-dehydrogenase, product on aminoacid analyzer
Format: biochemical, Brevibacterium species DSM 2448
Conditions: for Utilization as a substrate: result in words
Experimental: In order to regenerate the NADH consumed in the reductive amination there was added to the reaction mixture an excess of ammonium formate and the enzyme formate-dehydrogenase (E.C. 1.2.1.2) which in the oxidation of formate to CO2 reduces the cosubstrate NAD^+ to NADH.
The test mixture contained thereby uniformly 400 mM of ammonium formate (pH 8.5), 0.3 mM NADH, 0.6 U/ml formate-dehydrogenase (prepared according to Kroner et al (1982), J. Chem. Tech. Biotechnol, Volume 32, pages 130 to 137), 0.5 U/ml L-phenylalanine-dehydrogenase, 25 mM α-ketocarboxylic acid. The total volume was 3 ml. The incubation was carried out with stirring at 27° C. The product formation in each case was followed on the aminoacid analyzer.

[1] = 25 mM α-ketocarboxylic acid, 0.5 U/ml enzyme, 27° C., 2 hours
[2] = 25 mM α-ketocarboxylic acid, 0.5 U/ml enzyme, 27° C., 6 hours

## O=C(O)C(=O)Cc1c[nH]cn1 [Imidazolyl pyruvic acid]
[1]
  Product Formation after 2 hours, %: 1%
  Product Formation after 2 hours, mM: 0,2 mM
[2]
  Product Formation after 6 hours, %: 2%
  Product Formation after 6 hours, mM: 0,5 mM
  Utilization as a substrate: essentially does not utilize
Listed as imidazolyl pyruvate
  Utilization as a substrate: practically not utilized as a substrate
